Results published in PubChem BioAssay AID438 (Columbia University Molecular Screening Center, 2006).
The other results are listed elsewhere or left out.

test: inhibitors of TNFa-induced NFkB p65 translocation, primary screen, imaging, HUVEC, MLSMR starter and 10KST1 sets (AID 438); settings: HUVEC TNFa-induced p65 nuclear translocation, measured here: nuclei count (cytotoxicity indicator), at 2.08 µM;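 also: compound added about 3h40 before a 20 min TNFalpha stimulation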

Structure (SMILES) | cell count
COP1(=S)c2c(C)nn(CCC#N)c2N=C(c2ccc(F)cc2)N1C (stereo not drawn) | 454
O=C(COc1ccccc1)OC1CN2CCC1CC2 (stereo not drawn) | 380
CP(=S)(Nn1cnnc1)Oc1ccccc1 (stereo not drawn) | 497
Cc1ccc(C)c(NP(C)(=O)Oc2ccccc2)c1 (stereo not drawn) | 669
Cc1cccc(OCC(=O)OC2CN3CCC2CC3)c1 (stereo not drawn) | 547
CCOP1(=S)c2c(C)nn(CCC#N)c2N=C(c2ccccc2F)N1C (stereo not drawn) | 416
Cc1ccc(OCC(=O)OC2CN3CCC2CC3)cc1 (stereo not drawn) | 525
Cc1nn(-c2ccccc2)c2c1P(=O)(N1CCOCC1)N(C)C(c1ccccc1)=N2 (stereo not drawn) | 419
CP(=O)(Nc1ccc2c(c1)OCCO2)Oc1ccccc1 (stereo not drawn) | 418
O=P(Nc1nccs1)(c1ccccc1)c1ccccc1 | 714
CN(C)CCOC(=O)C(O)(c1ccccc1)C1CCCCC1 (stereo not drawn) | 613
CP(=O)(Nc1ccccn1)Oc1ccccc1 (stereo not drawn) | 252
CCN(CC)CC(O)COC(=O)C(O)(c1ccccc1)C1CCCCC1 (stereo not drawn) | 670
